These are yes or no findings as the source states them, for the method shown. Some entries that bind do so weakly or less than the wild type. Blank lines part the entries; values can stand above or below the binder they belong to.
Columns and labels:
[1] = biological target: PD1 expressed on HEK293F cells (UniProt Q15116); assay: cell binding, PD1-expressing HEK293F cells
[2] = biological target: PDL1 expressed on HEK293 (293F) cells (UniProt Q9NZQ7); assay: flow cytometry on PDL1-expressing HEK293 cells
[3] = biological target: PDL1 expressed on HEK293 (293F) cells (UniProt Q9NZQ7); assay: flow cytometry on PDL1-expressing 293F cells
[4] = biological target: PDL1 expressed on HEK293 (293F) cells (UniProt Q9NZQ7); assay: flow cytometry on 293F cells expressing PDL1, detection Anti-mIgG PE
[5] = biological target: human Trop2 (human) (UniProt P09758); assay: absorbance assay (Net absorbance, Abs 450) on 'Trop2-hFc'; one unprinted antibody concentration
[6] = biological target: T1, Tigit expressed on HEK293 (293F) cells (UniProt Q495A1); assay: flow cytometry on 293F cells expressing Tigit, Binding (% Total)
T1 sequence (looked up): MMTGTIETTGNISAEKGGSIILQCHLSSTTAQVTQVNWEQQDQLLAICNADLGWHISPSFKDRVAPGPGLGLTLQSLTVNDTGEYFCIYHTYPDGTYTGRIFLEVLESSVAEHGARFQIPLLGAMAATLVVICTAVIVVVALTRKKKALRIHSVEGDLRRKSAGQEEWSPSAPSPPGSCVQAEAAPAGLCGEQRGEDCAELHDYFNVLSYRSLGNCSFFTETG

Protein sequences, listed by entry. Tags and fused reporters are not part of them. Residues count along the entry.
UniProt Q15116, residues 25-288: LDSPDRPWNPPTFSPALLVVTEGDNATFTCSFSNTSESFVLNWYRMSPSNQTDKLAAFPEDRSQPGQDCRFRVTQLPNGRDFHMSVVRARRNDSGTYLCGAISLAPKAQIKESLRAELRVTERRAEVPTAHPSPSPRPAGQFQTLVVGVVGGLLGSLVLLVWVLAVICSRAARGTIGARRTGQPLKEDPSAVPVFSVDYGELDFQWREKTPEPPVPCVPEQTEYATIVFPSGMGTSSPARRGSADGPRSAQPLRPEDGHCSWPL
UniProt Q9NZQ7, residues 19-290: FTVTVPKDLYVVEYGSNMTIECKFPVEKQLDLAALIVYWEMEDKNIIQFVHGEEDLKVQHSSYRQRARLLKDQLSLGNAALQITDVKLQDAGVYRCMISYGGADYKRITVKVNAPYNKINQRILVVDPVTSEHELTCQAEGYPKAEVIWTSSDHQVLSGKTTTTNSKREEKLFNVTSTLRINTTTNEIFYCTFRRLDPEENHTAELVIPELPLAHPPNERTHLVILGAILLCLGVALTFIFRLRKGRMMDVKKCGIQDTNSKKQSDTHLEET
UniProt P09758, residues 27-274: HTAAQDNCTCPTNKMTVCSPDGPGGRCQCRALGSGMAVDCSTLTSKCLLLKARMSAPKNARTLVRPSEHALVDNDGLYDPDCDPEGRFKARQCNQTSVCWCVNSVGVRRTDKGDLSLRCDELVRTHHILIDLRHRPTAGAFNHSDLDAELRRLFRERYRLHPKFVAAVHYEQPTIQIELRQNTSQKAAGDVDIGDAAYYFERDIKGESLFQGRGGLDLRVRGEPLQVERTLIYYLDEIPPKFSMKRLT

[7] = biological target: T1, Tigit expressed on HEK293 (293F) cells; assay: flow cytometry on Tigit-expressing HEK293 cells
[8] = biological target: T1, Tigit expressed on HEK293 (293F) cells; assay: flow cytometry on Tigit-expressing 293F cells
[9] = biological target: T1, Tigit expressed on HEK293 (293F) cells; assay: flow cytometry on 293F cells expressing Tigit, PE-A

B1: ARB204, CDH17-PD1 bispecific antibody (anti-CDH17 10C12 Fab, anti-PD1 1C8 scFv) (bispecific antibody, human IgG1, kappa)
heavy: EVQLVESGGGLVQPGGSLRLSCAASGFTFSSYAMSWVRQTPGKGLEWVAVIDSNGGSTYYPDTVKDRFTISRDNSKNTLYLQMNSLRAEDTAVYYCSSYTNLGAYWGQGTLVTVSAASTKGPSVFPLAPSSKSTSGGTAALGCLVKDYFPEPVTVSWNSGALTSGVHTFPAVLQSSGLYSLSSVVTVPSSSLGTQTYICNVNHKPSNTKVDKRVEPKSCDKTHTCPPCPAPELLGGPSVFLFPPKPKDTLMISRTPEVTCVVVDVSQEDPEVQFNWYVDGVEVHNAKTKPREEQFNSTYRVVSVLTVLHQDWLNGKEYKCKVSNKGLPSSIEKTISKAKGQPREPQVYTLPPSQEEMTKNQVSLTCLVKGFYPSDIAVEWESNGQPENNYKTTPPVLDSDGSFFLYSRLTVDKSRWQEGNVFSCSVMHEALHNHYTQKSLSLSLGKPAGGGGSEVQLVESGGGLVQPGGSLRLSCAASGFTFSRSTMSWVRQAPGKGLEWVATISGGGLNTYFPDSVKGRFTISRDNSKNTLYLQMNSLRAEDTAVYYCTRNSNSYYFALDYWGQGTLVTVSSGGGGSGGGGSGGGGSEIVLTQSPATLSLSPGERATLSCRASESVDNSGVSFMNWYQQKPGQAPRLLIYIASNQVSGIPARFSGSGSGTDFTLTISSLEPEDFAVYYCQQIKEVPWTFGGGTKVEIK
light: DIQMTQSPSSLSASVGDRVTITCRASQDISGYLNWLQQKPGGAIKRLIYTTSTLDSGVPKRFSGSGSGTDFTLTISSLQSEDFATYYCLQYASSPFTFGGGTKVEIKRTVAAPSVFIFPPSDEQLKSGTASVVCLLNNFYPREAKVQWKVDNALQSGNSQESVTEQDSKDSTYSLSSTLTLSKADYEKHKVYACEVTHQGLSSPVTKSFNRGEC
binding [1]: binds

B3: h8B5-h3G8v2, bispecific anti-Trop2 (h8B5) / anti-CD3 (h3G8 scFv V2, VL-VH with 3xGS linker) (bispecific antibody, human IgG1, kappa)
heavy: EVQLVESGGGLVQPGGSLRLSCAASGFTFSTYTMSWVRQTPAKGLVWVSTINSDGYNIYYSDSMKGRFTISRDNAKYTLYLQMNSLRAEDTAMYYCARCSYYSYDYFDYWGQGTLVTVSSASTKGPSVFPLAPSSKSTSGGTAALGCLVKDYFPEPVTVSWNSGALTSGVHTFPAVLQSSGLYSLSSVVTVPSSSLGTQTYICNVNHKPSNTKVDKRVEPKSCDKTHTCPPCPAPELLGGPSVFLFPPKPKDTLMISRTPEVTCVVVDVSQEDPEVQFNWYVDGVEVHNAKTKPREEQFNSTYRVVSVLTVLHQDWLNGKEYKCKVSNKGLPSSIEKTISKAKGQPREPQVYTLPPSQEEMTKNQVSLTCLVKGFYPSDIAVEWESNGQPENNYKTTPPVLDSDGSFFLYSRLTVDKSRWQEGNVFSCSVMHEALHNHYTQKSLSLSLGKPAGGGGSDIVMTQSPDSLAVSLGERATINCKSSQSLLNSRTRKNYLAWYQQKPGQPPKLLIYWASTRESGVPDRFSGSGSGTDFTLTISSLQAEDVAVYYCTQSFILRTFGQGTKVEIKGGGGSGGGGSGGGGSQVQLVQSGAEVKKPGASVKVSCKASGYTFTSYYMHWVRQAPGQGLEWMGWIYPENVNTNYAQKFQGRVTMTRDTSISTAYMELSRLRSDDTAVYYCARDSYGSYFFDYWGQGTLVTVSS
light: DIQMTQSPSSLSASVGDRVTITCRASENIDNYLAWYQQKQGKVPKLLIYAATNLADGMPSRFSGSGSGTDFTLTISSLQPEDVATYYCQHYYSNQLTFGQGTKLEIKRTVAAPSVFIFPPSDEQLKSGTASVVCLLNNFYPREAKVQWKVDNALQSGNSQESVTEQDSKDSTYSLSSTLTLSKADYEKHKVYACEVTHQGLSSPVTKSFNRGEC
binding [5]: binds

B4: h8B5-h3G8v3, bispecific anti-Trop2 (h8B5) / anti-CD3 (h3G8 scFv V3, VH-VL with 6xGS linker) (bispecific antibody, human IgG1, kappa)
heavy: EVQLVESGGGLVQPGGSLRLSCAASGFTFSTYTMSWVRQTPAKGLVWVSTINSDGYNIYYSDSMKGRFTISRDNAKYTLYLQMNSLRAEDTAMYYCARCSYYSYDYFDYWGQGTLVTVSSASTKGPSVFPLAPSSKSTSGGTAALGCLVKDYFPEPVTVSWNSGALTSGVHTFPAVLQSSGLYSLSSVVTVPSSSLGTQTYICNVNHKPSNTKVDKRVEPKSCDKTHTCPPCPAPELLGGPSVFLFPPKPKDTLMISRTPEVTCVVVDVSQEDPEVQFNWYVDGVEVHNAKTKPREEQFNSTYRVVSVLTVLHQDWLNGKEYKCKVSNKGLPSSIEKTISKAKGQPREPQVYTLPPSQEEMTKNQVSLTCLVKGFYPSDIAVEWESNGQPENNYKTTPPVLDSDGSFFLYSRLTVDKSRWQEGNVFSCSVMHEALHNHYTQKSLSLSLGKPAGGGGSQVQLVQSGAEVKKPGASVKVSCKASGYTFTSYYMHWVRQAPGQGLEWMGWIYPENVNTNYAQKFQGRVTMTRDTSISTAYMELSRLRSDDTAVYYCARDSYGSYFFDYWGQGTLVTVSSGGGGSGGGGSGGGGSGGGGSGGGGSGGGGSDIVMTQSPDSLAVSLGERATINCKSSQSLLNSRTRKNYLAWYQQKPGQPPKLLIYWASTRESGVPDRFSGSGSGTDFTLTISSLQAEDVAVYYCTQSFILRTFGQGTKVEIK
light: B3 light
binding [5]: binds

Second part, the binder after the results:

binding [2]: binds
binding [3]: binds
binding [4]: binds
B2: humanized anti-PDL1 antibody (Clone 2A6) (antibody, V domains shown)
VH: QVQLVQSGAEVKKPGASVKVSCKASGYTFTEYTMHWVRQAPGQRLEWMGWFFPGSGSIKYSQKFQGRVTITRDTSASTAYMELSSLRSEDTAVYYCARHERGFAYWGQGTLVTVSS
VL: DIVLTQSPASLAVSPGQRATITCRASASSSVSYIHWYQQKPGQPPKLLIYSTSNKDTGVPARFSGSGSGTDFTLTINPVEANDTANYYCHQWSSYPWTFGQGTKVEIK

binding [6]: binds
binding [7]: binds
binding [8]: binds
binding [9]: binds
B5: humanized anti-Tigit antibody (Clone 4F11) (antibody, V domains shown)
VH: QVQLVQSGAEVKKPGASVKVSCKVSGYTFTEYTMHWVRQAPGKGLEWMGGINPNNGGTIYAQKFQGRVTMTEDTSTDTAYMELSSLRSEDTAVYYCARLVLRYWYFDVWGRGTLVTVSS
VL: DIQMTQSPSSLSASVGDRVTITCRASASSNVIYLAWYQQKPGKAPKLLLYDTSRLESGVPSRFSGSGSGTDYTLTISSLQPEDFATYYCQQWSSNPLTFGGGTKVEIK
